# Test results: PubChem BioAssay (NCATS)
# Amino acid sequences for entries named in this document (tags omitted). A change or cut given only in a name is not applied to a line headed by its entry.
# UniProt Q07343: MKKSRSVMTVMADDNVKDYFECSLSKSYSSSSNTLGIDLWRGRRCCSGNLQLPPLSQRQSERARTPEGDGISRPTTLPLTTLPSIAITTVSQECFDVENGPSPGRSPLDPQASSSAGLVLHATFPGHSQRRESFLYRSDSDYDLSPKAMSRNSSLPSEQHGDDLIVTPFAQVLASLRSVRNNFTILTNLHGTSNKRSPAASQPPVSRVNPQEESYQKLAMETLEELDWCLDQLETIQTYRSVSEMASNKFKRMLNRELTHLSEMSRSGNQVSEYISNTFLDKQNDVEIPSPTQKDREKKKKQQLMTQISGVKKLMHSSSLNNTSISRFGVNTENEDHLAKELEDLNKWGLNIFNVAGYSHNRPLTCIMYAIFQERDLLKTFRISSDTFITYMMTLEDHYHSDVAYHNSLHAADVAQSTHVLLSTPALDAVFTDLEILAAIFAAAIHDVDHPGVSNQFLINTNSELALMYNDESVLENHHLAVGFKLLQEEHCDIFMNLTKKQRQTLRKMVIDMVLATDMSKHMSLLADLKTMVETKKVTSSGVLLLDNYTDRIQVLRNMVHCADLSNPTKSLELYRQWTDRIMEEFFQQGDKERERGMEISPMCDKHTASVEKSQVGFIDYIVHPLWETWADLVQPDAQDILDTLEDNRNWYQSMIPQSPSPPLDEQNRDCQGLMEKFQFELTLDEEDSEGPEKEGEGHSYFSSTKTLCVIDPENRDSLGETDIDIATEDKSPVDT
# UniProt P02791: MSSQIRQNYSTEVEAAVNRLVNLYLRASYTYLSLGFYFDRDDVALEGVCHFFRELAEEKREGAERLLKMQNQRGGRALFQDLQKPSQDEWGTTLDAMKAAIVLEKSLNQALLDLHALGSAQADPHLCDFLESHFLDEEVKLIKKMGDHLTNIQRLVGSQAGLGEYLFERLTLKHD
# UniProt O15648: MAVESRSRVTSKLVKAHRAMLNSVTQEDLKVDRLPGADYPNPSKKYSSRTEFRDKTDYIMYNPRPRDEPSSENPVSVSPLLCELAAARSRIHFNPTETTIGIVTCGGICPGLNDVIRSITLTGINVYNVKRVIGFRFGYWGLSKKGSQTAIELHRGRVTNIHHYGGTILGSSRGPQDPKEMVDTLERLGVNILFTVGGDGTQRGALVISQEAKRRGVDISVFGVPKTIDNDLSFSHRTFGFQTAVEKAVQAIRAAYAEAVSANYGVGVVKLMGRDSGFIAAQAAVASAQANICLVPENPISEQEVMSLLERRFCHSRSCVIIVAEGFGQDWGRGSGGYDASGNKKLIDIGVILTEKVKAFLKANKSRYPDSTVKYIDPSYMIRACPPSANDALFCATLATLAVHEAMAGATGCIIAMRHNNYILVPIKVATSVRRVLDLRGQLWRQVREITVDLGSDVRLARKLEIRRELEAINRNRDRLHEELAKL
# UniProt O94782: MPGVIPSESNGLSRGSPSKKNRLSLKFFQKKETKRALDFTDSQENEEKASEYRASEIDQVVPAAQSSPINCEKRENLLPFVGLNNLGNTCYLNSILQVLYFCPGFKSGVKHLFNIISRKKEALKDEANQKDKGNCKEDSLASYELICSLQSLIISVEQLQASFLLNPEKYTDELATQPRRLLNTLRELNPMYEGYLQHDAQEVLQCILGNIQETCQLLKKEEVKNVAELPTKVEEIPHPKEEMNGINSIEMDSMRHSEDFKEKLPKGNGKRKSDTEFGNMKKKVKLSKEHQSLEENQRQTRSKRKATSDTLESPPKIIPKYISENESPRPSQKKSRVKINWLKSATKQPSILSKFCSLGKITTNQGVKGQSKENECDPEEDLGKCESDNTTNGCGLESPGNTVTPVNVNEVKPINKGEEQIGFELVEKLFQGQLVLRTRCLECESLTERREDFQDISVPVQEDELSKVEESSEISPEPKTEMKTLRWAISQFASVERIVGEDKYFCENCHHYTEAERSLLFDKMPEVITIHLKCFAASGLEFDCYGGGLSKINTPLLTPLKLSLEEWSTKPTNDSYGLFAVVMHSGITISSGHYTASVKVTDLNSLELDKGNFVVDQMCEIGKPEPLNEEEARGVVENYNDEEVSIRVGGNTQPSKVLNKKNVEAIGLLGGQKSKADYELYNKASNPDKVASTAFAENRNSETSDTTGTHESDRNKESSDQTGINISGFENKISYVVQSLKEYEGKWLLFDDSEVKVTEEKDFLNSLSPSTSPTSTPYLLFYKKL
# UniProt O94925: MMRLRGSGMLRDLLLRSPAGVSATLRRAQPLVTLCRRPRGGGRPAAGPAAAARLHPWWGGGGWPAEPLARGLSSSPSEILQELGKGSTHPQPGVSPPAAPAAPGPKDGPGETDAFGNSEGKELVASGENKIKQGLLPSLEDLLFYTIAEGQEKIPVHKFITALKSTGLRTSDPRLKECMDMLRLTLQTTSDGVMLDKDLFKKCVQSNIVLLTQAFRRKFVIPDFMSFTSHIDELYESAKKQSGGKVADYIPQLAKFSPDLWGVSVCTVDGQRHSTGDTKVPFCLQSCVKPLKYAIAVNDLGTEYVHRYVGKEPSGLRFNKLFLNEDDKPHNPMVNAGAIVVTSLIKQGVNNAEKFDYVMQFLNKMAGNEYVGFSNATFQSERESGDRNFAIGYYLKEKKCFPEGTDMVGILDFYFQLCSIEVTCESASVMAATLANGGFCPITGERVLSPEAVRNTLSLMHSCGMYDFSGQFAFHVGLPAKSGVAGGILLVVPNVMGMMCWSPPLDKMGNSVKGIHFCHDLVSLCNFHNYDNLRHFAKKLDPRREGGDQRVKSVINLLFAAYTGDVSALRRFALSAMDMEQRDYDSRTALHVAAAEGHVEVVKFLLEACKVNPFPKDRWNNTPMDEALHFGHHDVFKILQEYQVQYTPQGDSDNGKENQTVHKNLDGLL
# UniProt P00784: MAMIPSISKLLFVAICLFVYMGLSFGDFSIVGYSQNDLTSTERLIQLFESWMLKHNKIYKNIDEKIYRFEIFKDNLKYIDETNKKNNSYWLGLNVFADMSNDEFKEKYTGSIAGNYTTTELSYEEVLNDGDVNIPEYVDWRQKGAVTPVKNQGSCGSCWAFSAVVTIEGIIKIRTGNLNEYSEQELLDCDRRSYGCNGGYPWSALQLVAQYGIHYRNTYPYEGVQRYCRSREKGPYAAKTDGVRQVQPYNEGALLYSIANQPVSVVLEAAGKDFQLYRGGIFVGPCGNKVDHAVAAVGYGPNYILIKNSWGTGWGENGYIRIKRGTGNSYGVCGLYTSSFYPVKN
# UniProt P54132: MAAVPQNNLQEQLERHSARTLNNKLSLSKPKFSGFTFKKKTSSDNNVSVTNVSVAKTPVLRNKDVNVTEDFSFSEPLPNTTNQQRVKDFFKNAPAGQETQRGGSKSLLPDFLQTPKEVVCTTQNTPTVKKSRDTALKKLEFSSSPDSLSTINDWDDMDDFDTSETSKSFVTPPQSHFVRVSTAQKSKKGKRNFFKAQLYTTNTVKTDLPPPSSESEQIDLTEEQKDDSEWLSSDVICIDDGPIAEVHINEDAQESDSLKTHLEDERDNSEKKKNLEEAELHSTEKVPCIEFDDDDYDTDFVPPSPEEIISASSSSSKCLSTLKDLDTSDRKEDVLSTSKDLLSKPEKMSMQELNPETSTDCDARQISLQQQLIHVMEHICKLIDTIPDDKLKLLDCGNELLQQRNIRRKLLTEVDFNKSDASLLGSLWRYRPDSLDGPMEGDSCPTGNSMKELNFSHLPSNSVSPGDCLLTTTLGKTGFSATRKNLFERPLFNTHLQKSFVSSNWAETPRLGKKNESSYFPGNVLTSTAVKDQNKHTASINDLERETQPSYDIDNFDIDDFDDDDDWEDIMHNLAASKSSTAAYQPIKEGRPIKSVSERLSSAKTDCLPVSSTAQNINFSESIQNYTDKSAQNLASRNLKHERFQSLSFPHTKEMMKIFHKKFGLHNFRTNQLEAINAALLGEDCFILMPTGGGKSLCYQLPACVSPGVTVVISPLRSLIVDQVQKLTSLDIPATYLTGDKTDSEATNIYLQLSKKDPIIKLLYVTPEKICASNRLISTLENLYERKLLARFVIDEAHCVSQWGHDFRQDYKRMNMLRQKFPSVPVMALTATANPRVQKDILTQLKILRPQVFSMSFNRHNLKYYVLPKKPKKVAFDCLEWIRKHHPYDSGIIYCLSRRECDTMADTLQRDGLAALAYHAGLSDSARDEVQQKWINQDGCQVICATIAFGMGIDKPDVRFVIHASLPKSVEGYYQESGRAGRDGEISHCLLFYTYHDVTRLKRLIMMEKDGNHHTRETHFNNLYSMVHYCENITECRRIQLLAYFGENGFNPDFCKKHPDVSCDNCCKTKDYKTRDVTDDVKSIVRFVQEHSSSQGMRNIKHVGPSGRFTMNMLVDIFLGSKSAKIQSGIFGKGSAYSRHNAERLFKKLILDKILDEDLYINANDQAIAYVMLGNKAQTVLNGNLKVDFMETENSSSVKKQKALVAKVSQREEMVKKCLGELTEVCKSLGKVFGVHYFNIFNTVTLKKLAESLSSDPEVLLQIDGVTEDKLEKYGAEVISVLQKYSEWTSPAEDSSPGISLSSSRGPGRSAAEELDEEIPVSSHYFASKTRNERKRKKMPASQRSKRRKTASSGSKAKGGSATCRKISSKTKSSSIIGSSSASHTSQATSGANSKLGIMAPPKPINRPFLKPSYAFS
# Inconclusive results, whose numbers are uncertain, are shown with a selection of clear calls. For some of these results: Potencies of inconclusive entries are doubtful fits and often do not repeat. Activity calls are given as the source filed them. Unless noted, calls come from the whole dose curve; as a rule, active = well fitted curve in the direction sought with a large enough effect; inconclusive = small, poorly fitted or top-dose-only effect, or another doubt; inactive = no such curve, though single readings can be large; an effect the other way counts as inactive or inconclusive.
# Tests used:
# [1] = Stat Signaling Pathway (AID 446; active = well fitted curve in either direction with a large enough effect, not every such curve was filed as active; inconclusive = small, poorly fitted or top-dose-only effect, or another doubt;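 note: ME-180 cervical cancer cells given 40 pM IL-6 alongside compound; SIE-controlled beta-lactamase reporter measured as 460/530 nm FRET emission ratio; % is set by controls: 0 for no effect and ±100 for the full control effect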); settings: ME-180 (cervical carcinoma) SIE beta-lactamase reporter, IL-6 stimulated, 5 h; at 7.69 µM (top of the series) unless noted
# How it was run: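 Compound effects on IL-6-induced STAT reporter activity were measured in ME-180 cells. After overnight culture, cells were co-treated with 40 pM IL-6 for 5 hrs before beta-lactamase substrate loading at room temperature.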
# [2] = target: 3',5'-cyclic-AMP phosphodiesterase 4B (Homo sapiens) (UniProt Q07343); test: qHTS Assay for Inhibitors of PDE-IV (AID 607; active = well fitted activation curve with a large enough effect in the main read-out, with a control signal flat, not every such curve was filed as active; inconclusive = small, poorly fitted or top-dose-only effect, or effect the other way, or a change in a side signal; note: potency is the fitted concentration of half-maximal effect); settings: HEK293 ACTOne CNG channel cells, membrane potential fluorescence; activation (PDE inhibition): at 22.9 µM (top of the series)
# How it was run: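 ACTOne HEK293 cells carry a modified cAMP-gated CNG channel and express endogenous PDE4; plated 1000 cells/well, compounds up to 22.9 uM final. Membrane-potential dye fluorescence (ex 535/em 590) was read; parental cells received 10 uM forskolin + 100 uM RO 20-1724.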
# [3] = qHTS Assay for Identification of Small Molecule Antagonists for NFkB Signaling Pathway (AID 895; active = well fitted inhibition curve with a large enough effect in the signal ratio, with a control signal flat, not every such curve was filed as active; inconclusive = small, poorly fitted or top-dose-only effect, or effect the other way, or a change in a side signal; the % refers to the signal ratio; note: % is set by controls: 0 for no effect and ±100 for the full control effect); settings: NFkB beta-lactamase reporter cells, FRET ratio 460/530, stimulated with 10 pM TNF alpha; activity change, negative = inhibition: at 38.3 µM (top of the series)
# How it was run: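 Beta-lactamase reporter read-out (460 and 530 nm emission ratio, 405 nm excitation, 2 hrs substrate loading RT) after 5 hr stimulation with 10 pM TNF alpha in compound-treated NFkB-bla ME-180 cells in low-serum medium.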
# [4] = qHTS for differential inhibitors of proliferation of Plasmodium falciparum line 7G8 (AID 1815);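 note: potency is the fitted concentration of half-maximal effect; parasite growth measured after three days of incubation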
# [5] = qHTS for differential inhibitors of proliferation of Plasmodium falciparum line GB4 (AID 1816); settings: Potency: Plasmodium falciparum GB4 proliferation inhibition;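 note: potency is the fitted concentration of half-maximal effect; parasite growth measured after 72 h incubation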
# [6] = qHTS for differential inhibitors of proliferation of Plasmodium falciparum line 3D7 (AID 1876); note: potency is the fitted concentration of half-maximal effect
# [7] = qHTS for differential inhibitors of proliferation of Plasmodium falciparum line W2 (AID 1883); settings: Potency: Plasmodium falciparum W2 proliferation inhibition;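 note: parasites grown with compound for 72 h before lysis and staining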; note: potency is the fitted concentration of half-maximal effect;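 for activity change, negative = inhibition: 0% = vehicle wells and -100% = control inhibitor wells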
# [8] = target: Ferritin light chain (Equus caballus) (UniProt P02791); test: qHTS Validation Assay for Identification of Novel General Anesthetics (AID 2323); note: potency is the fitted concentration of half-maximal effect
# How it was run: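 Competitive displacement of profluorescent 1-aminoanthracene (1-AMA, 50% saturated solution in PBS) from 10 uM horse-spleen apoferritin. Compounds incubated 10 min at room temperature; fluorescence read at 380 nm excitation/535 nm emission, normalized to free 1-AMA and complex, fitted with four-parameter Hill equation.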
# [9] = target: ATP-dependent 6-phosphofructokinase (Trypanosoma brucei brucei) (UniProt O15648); test: qHTS Validation Assay to Find Inhibitors of T. brucei phosphofructokinase (AID 485368); note: potency is the fitted concentration of half-maximal effect;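 for activity change, negative = inhibition: 0% = full PFK enzyme control and -100% = wells without enzyme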
# How it was run: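 Inhibition derived from concentration-response curves of luminescence, ranked by r2, response size and curve class; the underlying reaction used 1.25 nM PFK, 0.1 mM ATP and 0.5 mM F6P, 45 min, room temperature.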
# [10] = target: Ubiquitin carboxyl-terminal hydrolase 1 (Homo sapiens) (UniProt O94782); test: Inhibitors of USP1/UAF1: Pilot qHTS (AID 504865); note: potency is the fitted concentration of half-maximal effect; nearly all actives have a fitted effect of over 35% in size
# How it was run: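 USP1/UAF1 complex (1nM) preincubated with compound 15 min at room temperature, then Ub-Rho substrate (150nM final) added. Fluorescence read kinetically at 480/540 nm, 6 reads every 60 seconds. Buffer: 50mM HEPES pH 7.8, 0.5mM EDTA, 0.1 mg/ml BSA, 1mM TCEP, 0.01% Tween-20.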
# [11] = qHTS for Inhibitors of ATXN expression: Validation of Cytotoxic Assay (AID 588349); note: % is set by controls: 0 for no effect and ±100 for the full control effect
# How it was run: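 Cytotoxicity counter-screen: HEK293 cells exposed to compound titrations, 72 hr, 37 degrees C. Read-out is intracellular ATP (CellTiter Glo luminescence) as a viability measure.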
# [12] = target: Glutaminase kidney isoform, mitochondrial (Homo sapiens) (UniProt O94925); test: qHTS for Inhibitors of Glutaminase (GLS): LOPAC Validation (AID 624146); note: potency is the fitted concentration of half-maximal effect; nearly all actives have a fitted effect of over 60% in size
# How it was run: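 Read-out is an Amplex red fluorescence increase coupled through glutamate oxidase and HRP, measured before and after 30 min room-temperature incubation. hKGA is in 45 mM KH2PO4 (pH 8.2) with 0.02% Tween-20; glutamine added as 1mM solution.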
# [13] = qHTS Assay for Identifying Gametocytocidal Compounds (AID 743244); note: potency is the fitted concentration of half-maximal effect; settings: P. falciparum 3D7 stage III-V gametocytes, alamarBlue, 72 h; max response: stronger effect = lower value
# How it was run: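 P. falciparum 3D7 stage III–V gametocytes (20,000 cells/well) were exposed to compounds for 72 h at 37 °C, 5% CO2. AlamarBlue was then added for 24 h; decreased resorufin fluorescence (Ex 525/Em 598 nm) indicated loss of viability.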
# [14] = tested on: Zika virus NS2B-NS3 protease (unlinked); test: Optimization of GU AMC qHTS for Zika virus inhibitors: Unlinked NS2B-NS3 protease assay (AID 1347151); settings: recombinant ZIKV NS2B-NS3 protease, fluorogenic AMC substrate; activity change, negative = inhibition: at 52.5 µM (top of the series) unless noted; note: nearly all actives have a fitted effect of over 80% in size; note: potency is the fitted concentration of half-maximal effect;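 for activity change, negative = inhibition: 0% = no-inhibitor control and -100% = no-enzyme control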
# How it was run: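 Noncovalent complex of NS2B hydrophilic domain and NS3 protease domain, 25 nM final, in 10 mM Tris-HCl pH 8.0, 0.01% Tween 20. AMC fluorescence change over 15 min at room temperature was fitted to a 4-parameter Hill equation.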
# Papain (Carica papaya) = Papain (Carica papaya) (UniProt P00784); test: Primary qHTS assay for inhibitors of the protease papain (AID 1645873);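 note: papain turnover of Z-FR-AMC read as the AMC fluorescence gain over 10 min; % is set by controls: 0 for no effect and ±100 for the full control effect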
# [15] = qHTS Assay for Lipid Storage Modulators (AID 1519; calls by dose curve; note: % is set by controls: 0 for no effect and ±100 for the full control effect); settings: Drosophila S3 cells, BODIPY lipid droplet/cell ratio, laser cytometry, cells loaded with oleic acid; activity change, negative = inhibition: at 57.5 µM (top of the series) unless noted
# How it was run: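 Cells seeded at 5,000 per well were treated with compounds over a concentration series and loaded with oleic acid (400 uM, as added). Lipid droplet fluorescence (488 nm excitation, 500-530 nm channel) was read by laser-scanning cytometry and normalized to 20 uM Triacsin C.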
# [16] = target: RecQ-like DNA helicase BLM (Homo sapiens) (UniProt P54132); test: qHTS Validation Assay for Inhibitors of Bloom's syndrome helicase (BLM) (AID 2364); note: potency is the fitted concentration of half-maximal effect
# How it was run: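 Forked 20-bp duplex substrate (200 nM, TAMRA/BHQ-2) plus 2 mM ATP added after 15 min compound preincubation with 50 nM enzyme, pH 8.0, poly(dI-dC) 2.5 ug/ml. Strand separation followed by fluorescence (525/598 nm) over 2 h, normalized to enzyme-free and DMSO controls.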
# [17] = Quantitative high throughput screen for delayed death inhibitors of the malarial parasite plastid, 96 hour incubation (AID 488745);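 note: luciferase-expressing P. falciparum in erythrocytes at 2% hematocrit and 0.1% parasitemia; % is set by controls: 0 for no effect and ±100 for the full control effect; nearly all actives have a fitted effect of over 70% in size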
# How it was run: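 Luciferase-expressing P. falciparum, infected RBCs 2% Hct/0.1% parasitemia (final); 96 h cpd exposure, 37 C, 5% CO2; RPMI 1640 + 0.5% Albumax, bicarbonate, gentamycin. Readout: luminescence loss = growth inhibition.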
# [18] = HTS Assay for Allosteric Antagonists of the Human D2 Dopamine Receptor: Hit Validation in HTRF (AID 624455); note: potency is the fitted concentration of half-maximal effect
# How it was run: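 HTRF read-out; cells stably expressing D1 receptor; hits scored for inhibition of D1-mediated response. Primary screen: calcium flux, force-coupled inducible Hek293 Trex D2 line, antagonism vs EC80 dopamine.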
# [19] = Primary qHTS for small molecule stabilizers of the endoplasmic reticulum resident proteome: Secreted ER Calcium Modulated Protein (SERCaMP) assay (AID 1508630); settings: SH-SY5Y GLuc-SERCaMP (Gaussia luciferase released on ER calcium loss) secretion, thapsigargin, luminescence; activity change, negative = inhibition: at 38.4 µM (top of the series) unless noted; note: potency is the fitted concentration of half-maximal effect
# How it was run: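 The SH-SY5Y reporter protocol was run at 3 concentrations up to 38.3 uM (primary) or 11 concentrations (follow-up): 16 h compound, 100 nM thapsigargin for 4 h, then extracellular luciferase luminescence.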
# [20] = tested on: Zika virus NS2B-NS3 protease (linked construct); test: Confirmatory screen NINDS AMC qHTS for Zika virus inhibitors (AID 1347152);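 note: AMC fluorescence gain from cleaved Bz-Nle-KRR-AMC substrate over 15 min; top concentration of the series differs between compounds; 0% = no-inhibitor control and -100% = no-enzyme control; nearly all actives have a fitted effect of over 70% in size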
# How it was run: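 Purified NS2B-NS3 protease with NS2B hydrophilic domain linked to NS3 protease domain by flexible linker, 1 nM final in 10 mM Tris-HCl pH 8.0, 0.01% Tween 20. Compounds preincubated 15 min, room temperature; Bz-Nle-KRR-AMC 10 microM (Km 18.3 µM); 15-min fluorescence change, 4-parameter Hill fit.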
# [21] = Tertiary RLuc qRT-PCR qHTS assay for Zika virus inhibitors (AID 1347169); note: potency is the fitted concentration of half-maximal effect; nearly all actives have a fitted effect of over 55% in size
# How it was run: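 Vero cells (1,000 per well) plated overnight at 37 degrees C, treated with compound in DMSO, then infected with recombinant ZIKV-RLuc (Cambodian) at MOI 1-2 for 48-72 hrs. Live-cell Renilla luciferase substrate added; luminescence read after 1-1.5 hrs.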
# [22] = tested on: Zika virus NS2B-NS3 protease; test: Primary screen GU AMC qHTS for Zika virus inhibitors (AID 1347154);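 note: 0% = no-inhibitor control and -100% = no-enzyme control; nearly all actives have a fitted effect of over 70% in size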
# How it was run: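 Fluorogenic AMC-substrate cleavage by noncovalent NS2B-NS3 protease complex (25 nM, pH 8.0 Tris buffer with Tween 20) followed for 15 minutes at room temperature (~20% conversion). Percent inhibition from ex340/em450 signal change, fitted by 4-parameter Hill equation.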
smiles,measurement,setting,value
COc1cc(CNC(=O)CCCCCCC(C)C)ccc1O,"activity, negative = inhibition",[1],inconclusive: -32.8% [inhibitor] [at 38 µM]
same,Potency,[2],"inconclusive: 19 µM [activator, partial curve, poor fit]"
same,"activity change, negative = inhibition",[3],inconclusive: -36.9%
same,Potency,[4],"inconclusive: 17.8 µM [inhibitor, single point]"
same,Potency,[5],"inconclusive: 15.8 µM [inhibitor, single point]"
same,Potency,[6],"inconclusive: 12.6 µM [inhibitor, single point]"
same,Potency,[7],"inconclusive: 8.91 µM [inhibitor, single point]"
same,Potency,[8],"inconclusive: 22.4 µM [inhibitor, full curve]"
same,Potency,[9],inactive
same,Potency,[10],"inconclusive: 56.2 µM [inhibitor, partial curve]"
same,Potency,[11],inactive
same,Potency,[12],active: 3.16 µM
same,Potency,[13],"inconclusive: 5.62 µM [inhibitor, single point]"
same,Potency,[14],"inconclusive: 18.9 µM [inhibitor, partial curve, poor fit]"
same,Potency,Papain (Carica papaya),inactive
CCOC(=O)C12CC1/C(=N/O)c1ccccc1O2 (stereo not drawn),"activity change, negative = inhibition",[15],inconclusive: 0.253%
same,Potency,[7],inactive
same,Potency,[16],"inconclusive: 3.2 nM [inhibitor, full curve, poor fit]"
same,Potency,[9],"inconclusive: 8.49 µM [falling, single point]"
same,Potency,[17],inactive
same,Potency,[18],"inconclusive: 1.16 µM [inhibitor, single point]"
same,Potency,[14],inactive
same,Potency,[19],"inconclusive: 3.98 µM [inhibitor, partial curve, poor fit]"
O=C(Nc1cccc2ccccc12)O[C@@H]1CO[C@H]2[C@@H]1OC[C@@H]2NS(=O)(=O)c1cccc2cccnc12,Potency,[20],inactive
same,Potency,[21],"inconclusive: 20.8 µM [inhibitor, partial curve]"
CC(C)(C)c1ccc(NC(=O)O[C@@H]2CO[C@H]3[C@@H]2OC[C@@H]3Nc2nccc(-c3ccc(-c4ccccc4)cc3)n2)cc1,Potency,[20],inactive
same,Potency,[21],"inconclusive: 1.31 µM [inhibitor, full curve, poor fit]"
Cc1ccc(NC2=CC(=O)c3sc(C)nc3C2=O)cc1,Potency,[22],inactive

# A different layout for part of the listing above:
smiles | measurement | setting | value
COc1cc(CNC(=O)CCCCCCC(C)C)ccc1O | Potency | [14] | inconclusive: 18.9 µM [inhibitor, partial curve, poor fit]
same | Potency | Papain (Carica papaya) | inactive
